The target of test [1] is Fibroblast activation protein alpha (FAP) on DLD1-FAP cells (UniProt Q12884). The test can be described thus: flow cytofluorimetry on DLD1 cells electroporated with FAP mRNA (FAP TM DLD1) against Mock DLD1 and control.
The target in test [2] is CDH17 on cells (UniProt Q12864). The test can be described thus: told of the NFAT reporter assay with Jurkat reporter cells and DLD1 cells. Background: In a reporter assay the amount or activity of a reporter protein is the signal.
Test [3] has the same target. In words: flow cytofluorimetry on HEK293 cells transfected with CDH17, 5 ug/ml, Fc G1G4G1 (panel C).
The target is the same in test [4]. The test can be described thus: flow cytofluorimetry on HEK293 transfectants.
Test [5] addresses TROP2 on cells (UniProt P09758). The test can be described thus: flow cytofluorimetry on HEK293 transfectants.

Chains of the proteins cited; added tags and fusions are not shown. Residues count along the entry.
UniProt Q12884: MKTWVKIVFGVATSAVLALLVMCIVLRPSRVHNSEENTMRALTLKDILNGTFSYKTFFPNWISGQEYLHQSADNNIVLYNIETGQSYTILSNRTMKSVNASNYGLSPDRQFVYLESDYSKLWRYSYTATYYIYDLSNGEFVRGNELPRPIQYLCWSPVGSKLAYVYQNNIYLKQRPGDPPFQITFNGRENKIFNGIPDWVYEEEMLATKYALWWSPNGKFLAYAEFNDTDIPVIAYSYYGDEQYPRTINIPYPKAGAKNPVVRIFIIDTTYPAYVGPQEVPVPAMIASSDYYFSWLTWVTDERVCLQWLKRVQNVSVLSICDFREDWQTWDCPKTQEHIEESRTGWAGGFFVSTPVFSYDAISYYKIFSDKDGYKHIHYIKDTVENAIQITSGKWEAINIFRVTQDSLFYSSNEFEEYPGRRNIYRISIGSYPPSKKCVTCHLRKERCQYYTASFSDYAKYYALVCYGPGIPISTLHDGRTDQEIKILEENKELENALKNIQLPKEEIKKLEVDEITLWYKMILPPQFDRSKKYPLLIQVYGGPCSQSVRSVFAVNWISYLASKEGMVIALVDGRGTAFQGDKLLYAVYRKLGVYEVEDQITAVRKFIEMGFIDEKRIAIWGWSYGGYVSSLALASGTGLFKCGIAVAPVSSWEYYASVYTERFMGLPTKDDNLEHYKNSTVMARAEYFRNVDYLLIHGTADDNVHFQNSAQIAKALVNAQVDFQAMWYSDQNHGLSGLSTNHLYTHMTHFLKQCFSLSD
UniProt Q12864, residues 23-832: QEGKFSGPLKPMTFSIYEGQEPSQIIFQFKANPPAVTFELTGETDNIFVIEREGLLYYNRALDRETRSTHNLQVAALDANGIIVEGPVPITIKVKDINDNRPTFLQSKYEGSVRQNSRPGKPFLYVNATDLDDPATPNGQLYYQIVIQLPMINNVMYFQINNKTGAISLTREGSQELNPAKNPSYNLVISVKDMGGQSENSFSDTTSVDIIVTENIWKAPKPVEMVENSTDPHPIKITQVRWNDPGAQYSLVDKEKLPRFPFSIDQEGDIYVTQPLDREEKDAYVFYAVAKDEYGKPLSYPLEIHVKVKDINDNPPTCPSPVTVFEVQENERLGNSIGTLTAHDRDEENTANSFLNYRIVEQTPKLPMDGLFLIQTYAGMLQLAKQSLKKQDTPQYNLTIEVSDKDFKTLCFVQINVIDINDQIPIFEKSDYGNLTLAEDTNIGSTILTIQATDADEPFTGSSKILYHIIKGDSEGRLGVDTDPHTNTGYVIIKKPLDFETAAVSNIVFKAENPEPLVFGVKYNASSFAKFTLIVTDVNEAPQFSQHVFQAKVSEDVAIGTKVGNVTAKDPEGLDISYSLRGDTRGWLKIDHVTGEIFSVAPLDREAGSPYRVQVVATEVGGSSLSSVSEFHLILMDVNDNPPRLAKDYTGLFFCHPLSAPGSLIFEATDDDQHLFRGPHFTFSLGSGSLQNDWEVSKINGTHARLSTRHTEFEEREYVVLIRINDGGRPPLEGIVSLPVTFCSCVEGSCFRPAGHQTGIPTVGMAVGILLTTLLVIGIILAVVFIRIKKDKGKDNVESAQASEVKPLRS
UniProt P09758, residues 27-323: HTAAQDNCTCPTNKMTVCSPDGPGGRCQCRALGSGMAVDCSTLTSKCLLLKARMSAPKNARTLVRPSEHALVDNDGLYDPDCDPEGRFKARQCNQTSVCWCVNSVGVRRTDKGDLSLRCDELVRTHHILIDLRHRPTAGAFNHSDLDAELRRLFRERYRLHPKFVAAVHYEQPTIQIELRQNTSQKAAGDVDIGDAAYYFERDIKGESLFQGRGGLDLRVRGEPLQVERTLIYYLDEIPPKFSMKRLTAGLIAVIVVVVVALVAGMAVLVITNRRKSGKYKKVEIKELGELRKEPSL

Changes are numbered by the printed parent chain. No constants are given. Whether binding was seen depends on the method and setting. Some binding calls cover weakened binding; strength is not graded here. For some assays here: Where a sequence is shown, tags or fusion partners need not be part of it.

B1: hB2Ta (bispecific antibody)
light: DIQMTQSPSSLSASVGDRVTITCQASQDISNYLNWYQQKPGKAPKLLIYYTSRLESGVPSRFSGSGSGTDYTLTISSLQPEDFATYYCQQGNTLPWTFGQGTKVEIKGAPGGGTHTCPPCPAPELLGGPSVFLFPPKPKDTLMISRTPEVTCVVVDVSQEDPEVQFNWYVDGVEVHNAKTKPREEQFNSTYRVVSVLTVLHQDWLNGKEYKCKVSNKGLPSSIEKTISKAKGQPREPQVYTLPPSREEMTKNQVSLSCAVKGFYPSDIAVEWESNGQPENNYKTTPPVLDSDGSFFLVSKLTVDKSRWQQGNVFSCSVMHEALHNHYTQKSLSLSPGK
heavy: QVQLVQSGAEVKKPGASVKVSCKASGYSFTDYTMNWVRQAPGQGLEWMGVINPNHGISSYAQKFQGRVTMTRDTSTSTVYMELSSLRSEDTAVYYCVRRKISYDYDEGYAMDYWGQGTLVTVSSGGGGSGGGGSGGGGSDIVMTQSPDSLAVSLGERATINCKSSQNLLNSSNQKNYLAWYQQKPGQPPKLLVFFAATRESGVPDRFSGSGSGTDFTLTISSLQAEDVAVYYCQQHYSTPWTFGGGTKLEIKPAGGGGSEVQLVESGGGLVQPGGSLRLSCAASGYSFTGYTMNWVRQAPGKGLEWVALINPYKGVSTYNQKFKDRFTISVDKSKNTAYLQMNSLRAEDTAVYYCARSGYYGDSDWYFDVWGQGTLVTVSSGAPGGGTHTCPPCPAPELLGGPSVFLFPPKPKDTLMISRTPEVTCVVVDVSQEDPEVQFNWYVDGVEVHNAKTKPREEQFNSTYRVVSVLTVLHQDWLNGKEYKCKVSNKGLPSSIEKTISKAKGQPREPQVYTLPPSREEMTKNQVSLWCLVKGFYPSDIAVEWESNGQPENNYKTTPPVLDSDGSFFLYSKLTVDKSRWQQGNVFSCSVMHEALHNHYTQKSLSLSPGK
With B1, the binding entry in test [1] is given as “binds”.

B2: h10Ta-wt (bispecific antibody)
light: B1 light with Q24R, S30R
heavy: EVQLLESGGGLVQPGGSLRLSCAASGFTFSSYAMSWVRQAPGKGLEWVAVIDSNGGSTYYPDTVKDRFTISRDNSKNTLYLQMNSLRAEDTAVYYCSSYTNLGAYWGQGTLVTVSAGGGGSGGGGSGGGGSDIQMTQSPSSLSASVGDRVTITCRASQDISGYLNWLQQKPGKAIKRLIYTTSTLDSGVPSRFSGSGSGTDFTLTISSLQPEDFATYYCLQYASSPFTFGGGTKVEIKPAGGGGGSEVQLVESGGGLVQPGGSLRLSCAASGYSFTGYTMNWVRQAPGKGLEWVALINPYKGVSTYNQKFKDRFTISVDKSKNTAYLQMNSLRAEDTAVYYCARSGYYGDSDWYFDVWGQGTLVTVSSGAPGGGTHTCPPCPAPELLGGPSVFLFPPKPKDTLMISRTPEVTCVVVDVSQEDPEVQFNWYVDGVEVHNAKTKPREEQFNSTYRVVSVLTVLHQDWLNGKEYKCKVSNKGLPSSIEKTISKAKGQPREPQVYTLPPSREEMTKNQVSLWCLVKGFYPSDIAVEWESNGQPENNYKTTPPVLDSDGSFFLYSKLTVDKSRWQQGNVFSCSVMHEALHNHYTQKSLSLSPGK
notes: also called h10Ta with the parental Fv; h10Ta (wt anti-CD3 Fv)
As for B2, in test [2], the binding entry is “binds”.

B3: TriAx-A with h10v2 scFv, Fc G1G4G1 (bispecific antibody)
light: B1 light
heavy: B2 heavy
In the case of B3, the binding result in test [3] is reported as “binds”.

B4: h8h10Te (possessing the parental anti-CD3 Fv) (protein)
light: DIQMTQSPSSLSASVGDRVTITCRASENIDNYLAWYQQKPGKVPKLLIYAATNLADGVPSRFSGSGSGTDFTLTISSLQPEDVATYYCQHYYSNQLTFGQGTKLEIKGGGGSGGGGSGGGGSEVQLVESGGGLVQPGGSLRLSCAASGFTFSTYTMSWVRQAPGKGLEWVANINSDGYNIYYSDSVKGRFTISRDNAKNSLYLQMNSLRAEDTAVYYCVRCSYYSYDYFDYWGQGTLVTVSSPAGGGGGSDIQMTQSPSSLSASVGDRVTITCRASQDIRNYLNWYQQKPGKAPKLLIYYTSRLESGVPSRFSGSGSGTDYTLTISSLQPEDFATYYCQQGNTLPWTFGQGTKVEIKGAPGGGTHTCPPCPAPELLGGPSVFLFPPKPKDTLMISRTPEVTCVVVDVSQEDPEVQFNWYVDGVEVHNAKTKPREEQFNSTYRVVSVLTVLHQDWLNGKEYKCKVSNKGLPSSIEKTISKAKGQPREPQVYTLPPSREEMTKNQVSLSCAVKGFYPSDIAVEWESNGQPENNYKTTPPVLDSDGSFFLVSKLTVDKSRWQQGNVFSCSVMHEALHNHYTQKSLSLSPGK
heavy: B2 heavy
B4: the binding result in test [4] and in test [5] was “binds” throughout.

For the origin of these results see US20230340119A1 (ARBELE, published 2023).
